These are yes or no findings as the source states them, for the method shown. In cells and extracts the contact can be indirect. Some entries that bind do so weakly or less than the wild type. Each block holds one substance with its values, some of them ahead of it.
Columns and labels:
[1] = biological target: TRPV1-HA (rat) (UniProt O35433); test: co-IP; lysates of Myc-mSlo1 and TRPV1-HA co-transfected HEK293 cells (50 mM Tris-HCl pH 7.4, 50 mM NaCl, 1% Nonidet P-40); anti-myc or anti-HA prebound dynabeads protein G, 4 °C, 2 hours; immunoblot with anti-HA or anti-myc; IgG-IP as negative control
[2] = biological target: Myc-mSlo1 (UniProt Q08460); test: as above
[3] = biological target: TRPV1 (endogenous, rat DRG) (rat (endogenous in DRG)) (UniProt O35433); test: co-IP; lysates of DRGs from male adult Wistar rats (50 mM Tris-HCl pH 7.4, 50 mM NaCl, 1% Nonidet P-40); anti-Slo1 or anti-TRPV1 prebound dynabeads protein G, 4 °C, 2 hours; immunoblot with anti-TRPV1 or anti-Slo1; IgG-IP as negative control
[4] = biological target: Slo1 (endogenous BK channel of rat DRG) (rat (endogenous in DRG)) (UniProt Q62976); test: as above

By UniProt entry, the sequences of proteins in these tests, tags left out. Where a name states a change or a piece, a line headed by the entry shows the natural chain unless it says otherwise.
UniProt O35433: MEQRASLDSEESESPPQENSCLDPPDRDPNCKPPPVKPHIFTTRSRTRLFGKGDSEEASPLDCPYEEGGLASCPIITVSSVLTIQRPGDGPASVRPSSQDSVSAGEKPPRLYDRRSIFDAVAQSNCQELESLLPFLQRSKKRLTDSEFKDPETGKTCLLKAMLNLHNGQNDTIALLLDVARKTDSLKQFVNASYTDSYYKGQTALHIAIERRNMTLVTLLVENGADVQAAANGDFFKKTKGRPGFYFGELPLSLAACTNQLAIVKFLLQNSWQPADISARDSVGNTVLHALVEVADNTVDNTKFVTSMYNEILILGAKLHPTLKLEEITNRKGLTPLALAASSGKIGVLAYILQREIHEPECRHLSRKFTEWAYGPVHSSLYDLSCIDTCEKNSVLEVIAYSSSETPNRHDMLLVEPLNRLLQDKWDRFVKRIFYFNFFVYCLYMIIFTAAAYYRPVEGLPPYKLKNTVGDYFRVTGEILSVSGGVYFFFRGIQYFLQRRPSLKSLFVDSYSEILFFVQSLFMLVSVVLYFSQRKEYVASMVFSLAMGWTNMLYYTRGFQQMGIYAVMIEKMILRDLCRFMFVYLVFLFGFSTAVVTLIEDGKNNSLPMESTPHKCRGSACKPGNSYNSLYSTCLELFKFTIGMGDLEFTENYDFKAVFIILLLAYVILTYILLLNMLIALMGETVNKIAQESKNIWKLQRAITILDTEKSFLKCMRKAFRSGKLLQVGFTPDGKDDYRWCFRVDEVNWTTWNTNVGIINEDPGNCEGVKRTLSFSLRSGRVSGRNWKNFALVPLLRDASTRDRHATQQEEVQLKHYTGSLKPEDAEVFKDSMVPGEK
UniProt Q08460: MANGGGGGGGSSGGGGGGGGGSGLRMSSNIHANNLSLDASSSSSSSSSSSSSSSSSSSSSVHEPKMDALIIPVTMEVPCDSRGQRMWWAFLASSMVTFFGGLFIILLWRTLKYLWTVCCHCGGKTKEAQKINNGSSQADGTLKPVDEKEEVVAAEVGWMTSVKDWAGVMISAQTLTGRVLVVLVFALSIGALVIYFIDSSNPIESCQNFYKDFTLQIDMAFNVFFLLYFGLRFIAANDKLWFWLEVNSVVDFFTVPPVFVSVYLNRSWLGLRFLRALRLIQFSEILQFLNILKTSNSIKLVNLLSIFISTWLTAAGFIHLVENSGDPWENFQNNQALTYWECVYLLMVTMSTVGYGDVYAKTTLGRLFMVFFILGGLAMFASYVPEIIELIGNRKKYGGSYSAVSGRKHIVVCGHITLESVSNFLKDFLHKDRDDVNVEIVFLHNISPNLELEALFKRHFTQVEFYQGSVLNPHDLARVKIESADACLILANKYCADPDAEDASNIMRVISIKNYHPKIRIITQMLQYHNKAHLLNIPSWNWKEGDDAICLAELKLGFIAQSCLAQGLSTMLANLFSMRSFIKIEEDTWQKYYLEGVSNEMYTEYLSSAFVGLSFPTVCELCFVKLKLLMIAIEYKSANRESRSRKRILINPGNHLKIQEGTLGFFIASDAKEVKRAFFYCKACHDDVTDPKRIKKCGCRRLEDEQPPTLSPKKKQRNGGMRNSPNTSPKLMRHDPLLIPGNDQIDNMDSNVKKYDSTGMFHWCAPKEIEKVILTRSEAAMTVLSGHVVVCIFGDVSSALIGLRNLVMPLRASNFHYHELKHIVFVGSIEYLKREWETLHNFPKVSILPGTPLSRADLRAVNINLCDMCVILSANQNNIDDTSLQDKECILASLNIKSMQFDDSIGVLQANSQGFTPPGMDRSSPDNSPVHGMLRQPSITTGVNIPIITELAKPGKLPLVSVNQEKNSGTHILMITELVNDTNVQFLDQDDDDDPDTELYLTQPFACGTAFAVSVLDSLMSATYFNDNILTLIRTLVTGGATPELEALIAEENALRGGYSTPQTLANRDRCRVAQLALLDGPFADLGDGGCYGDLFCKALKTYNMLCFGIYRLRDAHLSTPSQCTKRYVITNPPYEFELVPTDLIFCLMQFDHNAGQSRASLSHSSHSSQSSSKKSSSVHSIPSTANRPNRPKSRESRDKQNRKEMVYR
UniProt Q62976: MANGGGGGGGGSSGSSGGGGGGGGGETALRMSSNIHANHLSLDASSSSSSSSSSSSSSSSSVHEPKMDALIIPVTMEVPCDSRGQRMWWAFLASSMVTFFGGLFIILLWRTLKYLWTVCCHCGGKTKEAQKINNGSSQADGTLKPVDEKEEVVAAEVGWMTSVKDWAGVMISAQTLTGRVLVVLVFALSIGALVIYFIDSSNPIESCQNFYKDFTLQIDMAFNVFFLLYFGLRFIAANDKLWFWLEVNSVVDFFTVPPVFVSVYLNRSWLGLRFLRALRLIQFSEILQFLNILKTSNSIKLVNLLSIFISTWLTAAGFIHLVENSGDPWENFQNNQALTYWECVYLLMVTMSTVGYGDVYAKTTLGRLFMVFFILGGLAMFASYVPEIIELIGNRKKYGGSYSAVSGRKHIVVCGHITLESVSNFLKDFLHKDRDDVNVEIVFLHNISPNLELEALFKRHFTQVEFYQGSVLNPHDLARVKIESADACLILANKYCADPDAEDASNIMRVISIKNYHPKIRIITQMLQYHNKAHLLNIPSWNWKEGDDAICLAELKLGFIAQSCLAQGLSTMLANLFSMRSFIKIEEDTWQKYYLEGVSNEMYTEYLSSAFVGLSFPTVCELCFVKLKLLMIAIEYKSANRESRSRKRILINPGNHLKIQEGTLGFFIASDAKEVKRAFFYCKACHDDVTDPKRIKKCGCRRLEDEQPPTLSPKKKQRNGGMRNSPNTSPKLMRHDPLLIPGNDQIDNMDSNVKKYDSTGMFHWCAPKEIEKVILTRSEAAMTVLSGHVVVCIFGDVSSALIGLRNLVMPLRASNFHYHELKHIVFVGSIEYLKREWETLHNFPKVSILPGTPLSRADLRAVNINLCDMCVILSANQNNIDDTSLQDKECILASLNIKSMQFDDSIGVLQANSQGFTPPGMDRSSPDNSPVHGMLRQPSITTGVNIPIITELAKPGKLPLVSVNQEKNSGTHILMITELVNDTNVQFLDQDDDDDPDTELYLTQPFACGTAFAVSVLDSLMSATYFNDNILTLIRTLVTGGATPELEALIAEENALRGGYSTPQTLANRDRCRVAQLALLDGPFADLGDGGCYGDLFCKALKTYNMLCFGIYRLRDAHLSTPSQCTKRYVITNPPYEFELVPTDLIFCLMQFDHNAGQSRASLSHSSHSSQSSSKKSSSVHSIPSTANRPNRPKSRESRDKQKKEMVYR

Substance: Myc-mSlo1 (from UniProt Q08460 1-1209)
binding [1]: binds

Substance: TRPV1-HA (from UniProt O35433-1 1-838)
binding [2]: binds

binding [3]: binds
Substance: Slo1 (endogenous BK channel of rat DRG) (from UniProt Q62976 1-1209)

binding [4]: binds
Substance: TRPV1 (endogenous, rat DRG) (from UniProt O35433 1-838)
